Measured values as given in the supplement of paper PMC7661543.
± gives the standard deviation of the averaged measurements. The effect of the compound repeats well; differences between the knockouts mostly do not.

Tested on: SKBR3
Assay: relative cell number vs DMSO control (72 h) (% of DMSO); higher = less growth inhibition (more cells)
Description: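 QMAP-Seq: a pool of 5 breast cancer cell lines (ZR-75-1, SKBR3, HCC-38, MDA-MB-231, BT-20), each carrying 12 doxycycline-inducible Cas9 sgRNA perturbations (11 knockouts plus non-targeting sgNT), was treated with compounds for 72 h at four 10-fold doses (10 nM-10 uM or 1 nM-1 uM range). Barcodes were amplified and sequenced, and cell number was interpolated from 293T spike-in standard curves. The result is expressed as % of the median of DMSO wells. Two biological replicates.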

[1] = sgRNA knockout: sgATF3, 1000 nM
[2] = sgRNA knockout: sgATF3, 10000 nM
[3] = sgRNA knockout: sgATF4, 1000 nM
[4] = sgRNA knockout: sgATF4, 10000 nM
[5] = sgRNA knockout: sgATF6, 1000 nM
[6] = sgRNA knockout: sgATF6, 10000 nM
[7] = sgRNA knockout: sgATG7, 1000 nM
[8] = sgRNA knockout: sgATG7, 10000 nM
[9] = sgRNA knockout: sgERN1, 1000 nM
[10] = sgRNA knockout: sgERN1, 10000 nM
[11] = sgRNA knockout: sgHSF1, 1000 nM
[12] = sgRNA knockout: sgHSF1, 10000 nM
[13] = sgRNA knockout: sgHSF2, 1000 nM
[14] = sgRNA knockout: sgHSF2, 10000 nM
[15] = sgRNA knockout: sgKEAP1, 100 nM
[16] = sgRNA knockout: sgKEAP1, 1000 nM
[17] = sgRNA knockout: sgKEAP1, 10000 nM
[18] = sgRNA knockout: sgNFE2L2, 10 nM
[19] = sgRNA knockout: sgNFE2L2, 100 nM
[20] = sgRNA knockout: sgNFE2L2, 1000 nM
[21] = sgRNA knockout: sgNFE2L2, 10000 nM
[22] = sgRNA knockout: sgSLC35F2, 10 nM
[23] = sgRNA knockout: sgSLC35F2, 100 nM
[24] = sgRNA knockout: sgSLC35F2, 1000 nM
[25] = sgRNA knockout: sgSLC35F2, 10000 nM
[26] = sgRNA knockout: sgXBP1, 1000 nM
[27] = sgRNA knockout: sgXBP1, 10000 nM

Nc1nc(Cl)nc2c1ncn2[C@@H]1O[C@H](CO)[C@@H](O)[C@@H]1F [Clofarabine]
relative cell number (sgRNA knockout: sgATF3, 10 nM): 118 ± 4 | relative cell number (sgRNA knockout: sgATF3, 100 nM): 41.6 ± 3.8 | relative cell number [1]: 13.1 ± 2.9 | relative cell number [2]: 12.7 ± 1.1 | relative cell number (sgRNA knockout: sgATF4, 10 nM): 92.3 ± 26 | relative cell number (sgRNA knockout: sgATF4, 100 nM): 41.5 ± 6.1 | relative cell number [3]: 15.43 ± 0.057 | relative cell number [4]: 16.4 ± 6.8 | relative cell number (sgRNA knockout: sgATF6, 10 nM): 79.3 ± 3.7 | relative cell number (sgRNA knockout: sgATF6, 100 nM): 40.55 ± 0.23 | relative cell number [5]: 14.1 ± 3.4 | relative cell number [6]: 8.08 ± 6 | relative cell number (sgRNA knockout: sgATG7, 10 nM): 72.7 ± 5.5 | relative cell number (sgRNA knockout: sgATG7, 100 nM): 41.1 ± 11 | relative cell number [7]: 10.3 ± 3.5 | relative cell number [8]: 15.1 ± 4 | relative cell number (sgRNA knockout: sgERN1, 10 nM): 94.9 ± 22 | relative cell number (sgRNA knockout: sgERN1, 100 nM): 47.8 ± 5.5 | relative cell number [9]: 10.5 ± 5.8 | relative cell number [10]: 19.6 ± 3.3 | relative cell number (sgRNA knockout: sgHSF1, 10 nM): 92.5 ± 12 | relative cell number (sgRNA knockout: sgHSF1, 100 nM): 50.6 ± 5.2 | relative cell number [11]: 15.2 ± 3.8 | relative cell number [12]: 13.9 ± 1.3 | relative cell number (sgRNA knockout: sgHSF2, 10 nM): 89 ± 8.1 | relative cell number (sgRNA knockout: sgHSF2, 100 nM): 40 ± 10 | relative cell number [13]: 13 ± 0.71 | relative cell number [14]: 19.4 ± 0.85 | relative cell number (sgRNA knockout: sgKEAP1, 10 nM): 85.2 ± 16 | relative cell number [15]: 53.8 ± 1.1 | relative cell number [16]: 15.1 ± 0.94 | relative cell number [17]: 15.2 ± 0.93 | relative cell number [18]: 90.4 ± 5.2 | relative cell number [19]: 41.5 ± 4.8 | relative cell number [20]: 13.9 ± 5.1 | relative cell number [21]: 17.1 ± 0.21 | relative cell number [22]: 68.2 ± 14 | relative cell number [23]: 34.9 ± 8.7 | relative cell number [24]: 14.1 ± 3.3 | relative cell number [25]: 14.2 ± 1.3 | relative cell number (sgRNA knockout: sgXBP1, 10 nM): 79.6 ± 5.3 | relative cell number (sgRNA knockout: sgXBP1, 100 nM): 38.1 ± 5.6 | relative cell number [26]: 11.3 ± 0.51 | relative cell number [27]: 11.7 ± 2.9

CCOC(=O)[C@@]1(CCCCCCOc2ccc(Cl)cc2)CO1 [Etomoxir]
relative cell number (sgRNA knockout: sgATF3, 10 nM): 95 ± 6.4 | relative cell number (sgRNA knockout: sgATF3, 100 nM): 114 ± 14 | relative cell number [1]: 107 ± 21 | relative cell number [2]: 104 ± 23 | relative cell number (sgRNA knockout: sgATF4, 10 nM): 93.4 ± 16 | relative cell number (sgRNA knockout: sgATF4, 100 nM): 90.3 ± 2 | relative cell number [3]: 88.3 ± 15 | relative cell number [4]: 88.4 ± 21 | relative cell number (sgRNA knockout: sgATF6, 10 nM): 92.9 ± 26 | relative cell number (sgRNA knockout: sgATF6, 100 nM): 75.6 ± 16 | relative cell number [5]: 78.9 ± 2.8 | relative cell number [6]: 80.9 ± 5.8 | relative cell number (sgRNA knockout: sgATG7, 10 nM): 77.6 ± 23 | relative cell number (sgRNA knockout: sgATG7, 100 nM): 89.2 ± 19 | relative cell number [7]: 127 ± 32 | relative cell number [8]: 108 ± 2.8 | relative cell number (sgRNA knockout: sgERN1, 10 nM): 80.2 ± 1.6 | relative cell number (sgRNA knockout: sgERN1, 100 nM): 93.3 ± 10 | relative cell number [9]: 107 ± 5.1 | relative cell number [10]: 103 ± 6 | relative cell number (sgRNA knockout: sgHSF1, 10 nM): 99.7 ± 16 | relative cell number (sgRNA knockout: sgHSF1, 100 nM): 84.2 ± 7.3 | relative cell number [11]: 103 ± 21 | relative cell number [12]: 79.1 ± 28 | relative cell number (sgRNA knockout: sgHSF2, 10 nM): 74.1 ± 8.3 | relative cell number (sgRNA knockout: sgHSF2, 100 nM): 95.9 ± 20 | relative cell number [13]: 87.9 ± 8.7 | relative cell number [14]: 112 ± 1.9 | relative cell number (sgRNA knockout: sgKEAP1, 10 nM): 87.1 ± 1.3 | relative cell number [15]: 88.3 ± 5.5 | relative cell number [16]: 98.4 ± 2.7 | relative cell number [17]: 91.6 ± 8.6 | relative cell number [18]: 92.7 ± 3.4 | relative cell number [19]: 94.7 ± 8.5 | relative cell number [20]: 92.3 ± 21 | relative cell number [21]: 99.6 ± 10 | relative cell number [22]: 95.9 ± 16 | relative cell number [23]: 97.5 ± 21 | relative cell number [24]: 89.3 ± 13 | relative cell number [25]: 81.9 ± 13 | relative cell number (sgRNA knockout: sgXBP1, 10 nM): 97.1 ± 6.4 | relative cell number (sgRNA knockout: sgXBP1, 100 nM): 94.9 ± 6.6 | relative cell number [26]: 111 ± 7.2 | relative cell number [27]: 81.5 ± 26

C=CCn1c(=O)c2cnc(Nc3ccc(N4CCN(C)CC4)cc3)nc2n1-c1cccc(C(C)(C)O)n1 [MK1775]
relative cell number (sgRNA knockout: sgATF3, 10 nM): 85 ± 13 | relative cell number (sgRNA knockout: sgATF3, 100 nM): 115 ± 19 | relative cell number [1]: 32.2 ± 7 | relative cell number [2]: 17.6 ± 9.4 | relative cell number (sgRNA knockout: sgATF4, 10 nM): 85.6 ± 17 | relative cell number (sgRNA knockout: sgATF4, 100 nM): 94.6 ± 12 | relative cell number [3]: 24.1 ± 0.68 | relative cell number [4]: 13.6 ± 4.7 | relative cell number (sgRNA knockout: sgATF6, 10 nM): 84.8 ± 9.8 | relative cell number (sgRNA knockout: sgATF6, 100 nM): 81.7 ± 1.4 | relative cell number [5]: 19 ± 6 | relative cell number [6]: 12.7 ± 5 | relative cell number (sgRNA knockout: sgATG7, 10 nM): 70.6 ± 1.6 | relative cell number (sgRNA knockout: sgATG7, 100 nM): 96.7 ± 14 | relative cell number [7]: 19.1 ± 1.6 | relative cell number [8]: 15.4 ± 9.6 | relative cell number (sgRNA knockout: sgERN1, 10 nM): 105 ± 14 | relative cell number (sgRNA knockout: sgERN1, 100 nM): 89.2 ± 1.4 | relative cell number [9]: 19.5 ± 8.3 | relative cell number [10]: 12.7 ± 1.3 | relative cell number (sgRNA knockout: sgHSF1, 10 nM): 78.2 ± 7.8 | relative cell number (sgRNA knockout: sgHSF1, 100 nM): 96.6 ± 5.5 | relative cell number [11]: 24.7 ± 2.2 | relative cell number [12]: 11.7 ± 1.6 | relative cell number (sgRNA knockout: sgHSF2, 10 nM): 81.9 ± 26 | relative cell number (sgRNA knockout: sgHSF2, 100 nM): 93.5 ± 3.9 | relative cell number [13]: 24.4 ± 2.7 | relative cell number [14]: 11.1 ± 0.75 | relative cell number (sgRNA knockout: sgKEAP1, 10 nM): 93 ± 10 | relative cell number [15]: 67.6 ± 4.2 | relative cell number [16]: 20 ± 2.5 | relative cell number [17]: 12.4 ± 7.5 | relative cell number [18]: 85.6 ± 1.3 | relative cell number [19]: 98.2 ± 3.9 | relative cell number [20]: 20 ± 5.9 | relative cell number [21]: 9.15 ± 3.6 | relative cell number [22]: 88.6 ± 37 | relative cell number [23]: 77.4 ± 11 | relative cell number [24]: 19.2 ± 3.2 | relative cell number [25]: 9.66 ± 3.7 | relative cell number (sgRNA knockout: sgXBP1, 10 nM): 103 ± 65 | relative cell number (sgRNA knockout: sgXBP1, 100 nM): 88.5 ± 19 | relative cell number [26]: 19.7 ± 2 | relative cell number [27]: 12.5 ± 2.5
